This is an account of results in publication PMC8496311.

The experiment deals with T1, Innexin 2 (Drosophila (endogenous in ovary)) (UniProt Q9V427).
T1 sequence: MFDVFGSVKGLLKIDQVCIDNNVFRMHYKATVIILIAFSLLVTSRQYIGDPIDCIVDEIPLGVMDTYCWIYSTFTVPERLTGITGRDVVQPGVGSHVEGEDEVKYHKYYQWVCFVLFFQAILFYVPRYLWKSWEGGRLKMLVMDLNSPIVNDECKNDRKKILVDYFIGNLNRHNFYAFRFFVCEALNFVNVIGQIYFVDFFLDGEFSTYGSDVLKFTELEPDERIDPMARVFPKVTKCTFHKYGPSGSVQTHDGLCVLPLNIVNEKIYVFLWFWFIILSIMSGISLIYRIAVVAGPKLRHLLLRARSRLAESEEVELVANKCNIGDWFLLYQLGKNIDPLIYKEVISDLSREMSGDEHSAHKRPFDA
Briefly: proximity ligation; fixed (4% PFA) whole-mount Drosophila ovaries; primary antibodies against the two endogenous proteins, goat anti-guinea pig IgG conjugated with Plus oligonucleotide (Duolink); punctate signals counted in single confocal slices.

No constants are given. Whether binding was seen depends on the method and setting. Binding seen in cells or lysates may run through a third protein.

B1: βPS-Integrin (receptor, UniProt P11584 29-846)
chain: QKAAKLTAVSTCASKEKCHTCIQTEGCAWCMQPDFKGQSRCYQNTSSLCPEEFAYSPITVEQILVNNKLTNQYKAELAAGGGGSAMSGSSSSSYSSSSSSSSFYSQSSSGSSSASGYEEYSAGEIVQIQPQSMRLALRVNEKHNIKISYSQAEGYPVDLYYLMDLSKSMEDDKAKLSTLGDKLSETMKRITNNFHLGFGSFVDKVLMPYVSTIPKKLEHPCENCKAPYGYQNHMPLNNNTESFSNEVKNATVSGNLDAPEGGFDAIMQAIACRSQIGWREQARRLLVFSTDAGFHYAGDGKLGGVIAPNDGECHLSPKGEYTHSTLQDYPSISQINQKVKDNAINIIFAVTASQLSVYEKLVEHIQGSSAAKLDNDSSNVVELVKEEYRKISSSVEMKDNATGDVKITYFSSCLSNGPEVQTSKCDNLKEGQQVSFTAQIQLLKCPEDPRDWTQTIHISPVGINEVMQIQLTMLCSCPCENPGSIGYQVQANSCSGHGTSMCGICNCDDSYFGNKCECSATDLTSKFANDTSCRADSTSTTDCSGRGHCVCGACECHKRPNPIEIISGKHCECDNFSCERNRNQLCSGPDHGTCECGRCKCKPGWTGSNCGCQESNDTCMPPGGGEICSGHGTCECGVCKCTVNDQGRFSGRHCEKCPTCSGRCQELKDCVQCQMYKTGELKNGDDCARNCTQFVPVGVEKVEIDETKDEQMCKFFDEDDCKFMFKYSEQGELHVYAQENKECPAKVFMLGIVMGVIAAIVLVGLAILLLWKLLTTIHDRREFARFEKERMNAKWDTGENPIYKQATSTFKNPMYAGK
Regarding B1, the binding result was “no binding”.
